Among the data in PubChem BioAssay AID2685 (National Center for Advancing Translational Sciences (NCATS), 2010) are cell number change and AC50 values, retold here.

Some of the results follow. The main result of the screen is listed elsewhere. These columns were measured beside it and carry no call. Most of these compounds were active or inconclusive in the main read-out, so they are no random draw. Potencies come from curve fits of mixed quality, noted in brackets.

The test is described as follows: qHTS Assay for Lipid Storage Modulators in Drosophila S3 Cells.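 On cell number change: cells counted by Cell Tracker Red CMTPX staining in the red channel.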 The following applies: BODIPY lipid droplet fluorescence, 18-24 h; for cell number change: measured here: cell count max response, cells fed with added oleic acid. In short, it runs like this:
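Drosophila S3 cells loaded with oleic acid (400 uM, as added) and compounds at several concentrations; lipid droplets imaged by 488-nm laser-scanning cytometry, 500–530 nm intensity and object ratio to cell channel. Percent activity normalized to 20 uM Triacsin C.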

Setting [1] is: measured here: lipid fluorescence (Fed channel) AC50, cells fed with added oleic acid.
Setting [2] is: measured here: cell number channel AC50, cells fed with added oleic acid.

One may read the AC50 as the midpoint of the concentration-response curve, whichever way the signal moves. Lower therefore signals greater potency. For `O=C(O)COc1ccc(S(=O)(=O)NCCc2ccccc2)cc1`, the cell number change is -26.3%. Under setting [1], the concentration at half-maximal activity (AC50) was 18.4 µM [falling, single point].

Take `Cc1cccc(C)c1NC(=O)CNC(=O)c1cncc(Br)c1`: the cell number change worked out at 7.89%.

`Cc1ccc(S(=O)(=O)N[C@H](C(=O)Oc2ccc3c(C(F)(F)F)cc(=O)oc3c2)c2ccccc2)cc1`: the cell number change came to 147%. Also, the concentration at half-maximal activity (AC50) under setting [2] is 0.13 µM [rising, full curve, poor fit].

With `Cc1cc(SCc2ccc(Cl)cc2Cl)nc(=O)[nH]1`, the cell number change was -60.2%. For the same compound, the AC50 under setting [2] is 3.26 µM [falling, partial curve].

Consider `CCN1CCC2(CC1)C(C#N)=C(N)Oc1c2sc2nc(C)cc(C)c12`, for which the cell number change was -0.181%. Besides, the AC50 under setting [1] was 0.82 µM [rising, full curve, poor fit].

On to `CC(=O)N(C1=C(Cl)C(=O)c2ccccc2C1=O)c1ccc(C(=O)O)cc1`, for which the cell number change is -27%. Moreover, the half-maximal activity concentration (AC50) under setting [1] was 29.1 µM [falling, single point].

For `COc1ccc(OCC(=O)Nc2ccccc2C(=O)N2CCCC2)cc1`, the cell number change is -30.7%. Further, the AC50 under setting [2] is 20.6 µM [falling, partial curve, poor fit].

In the case of `Cc1cccc(C(=O)OCC(=O)N(C)CC(=O)Nc2ccc(Cl)c(C(F)(F)F)c2)c1`, the cell number change amounted to 8.48%. Also, the AC50 under setting [1] is 6.51 µM [rising, single point].

In the case of `CC1CCc2nn(CC(=O)NCCN3CCOCC3)cc2C1` (configuration not stated), the cell number change was -42.6%. Also, the AC50 under setting [2] was 10.3 µM [falling, partial curve, poor fit]. Further, the AC50 under setting [1] was 25.9 µM [falling, partial curve, poor fit].

Take `Cc1ccc(C2=NN(C(=S)Nc3ccccc3)C(c3ccco3)C2)cc1` (configuration not stated): the cell number change is -2.98%. The half-maximal activity concentration (AC50) under setting [1] is 11.6 µM [rising, partial curve].

As to `CCn1ccnc1CN(C)C(=O)CC1C(=O)NCCN1Cc1c(F)cccc1Cl` (configuration not stated), the cell number change is -14%. Moreover, the AC50 under setting [1] is 29.1 µM [falling, single point].

Regarding `Cc1cc(-c2c(C)[nH]n(-c3ccc(Cl)cc3)c2=O)n(-c2ccccc2)n1`, the cell number change was -19.4%. Further, the AC50 under setting [1] is 20.6 µM [falling, single point].

Take `Cc1ccc(S(=O)(=O)/N=C2/C=C(Sc3ncn[nH]3)C(=O)c3ccccc32)c(C)c1`: the cell number change is -44.3%. Further, the concentration at half-maximal activity (AC50) under setting [2] was 11.6 µM [falling, partial curve, poor fit]. In addition, under setting [1], the AC50 was 8.2 µM [falling, partial curve].

Turning to `CCN(CC)S(=O)(=O)c1cccc(C(=O)N/N=C/c2ccc([N+](=O)[O-])o2)c1`, the cell number change is -39.6%. Also, the AC50 under setting [2] is 2.31 µM [falling, full curve].

As to `CC1(C)CC(=O)C(C(c2ccncc2)C2C(=O)CC(C)(C)CC2=O)C(=O)C1`, the cell number change came out at 25.3%. Further, the AC50 under setting [2] is 0.146 µM [falling, full curve, poor fit]. Besides, the AC50 under setting [1] is 29.1 µM [falling, single point].

`O=C(NCc1ccc2c(c1)OCO2)C1CCCN1C(=O)Nc1cccc(Cl)c1` (configuration not stated): the cell number change amounted to 25.2%. Moreover, the AC50 under setting [1] was 2.06 µM [rising, partial curve].

As to `COc1cc(-c2nc(CN(C)Cc3nnc(C)o3)c(C)o2)ccc1F`, the cell number change is -1.02%. Further, the AC50 under setting [1] is 6.51 µM [falling, single point].

On to `Cn1c(=O)c2cc(S(=O)(=O)NCCC(=O)Nc3ccc(F)cc3F)ccc2n(C)c1=O`, for which the cell number change was -32.8%. Further, the AC50 under setting [1] is 29.1 µM [rising, single point].

As to `CSc1cccc(NC(=O)CSc2ccc(Cl)cc2)c1`, the cell number change came out at 68.3%. The AC50 under setting [2] is 20.6 µM [rising, single point].

Turning to `O=C(COc1ccc(Cl)cc1)NCCN1CCCC1`, the cell number change worked out at 9.94%. Also, the half-maximal activity concentration (AC50) under setting [1] was 6.51 µM [falling, single point].

On to `O=C(Cn1c(NCCCO)nc2ccccc21)c1ccc(Cl)cc1Cl`, for which the cell number change is -37.6%. In addition, the AC50 under setting [2] was 18.4 µM [falling, partial curve, poor fit].

`CCCn1c(C)nnc1SCC(=O)NC1CCCCC1`: the cell number change is -4.9%.

For the compound `CC1CCN(C(=O)CN2C(=O)C(=O)c3ccccc32)CC1`, the cell number change stood at 16.4%.

With `O=C(COC(=O)c1nc(Cl)ccc1Cl)NNC(=O)c1ccccc1`, the cell number change was -19.4%. Also, the AC50 under setting [2] was 0.116 µM [falling, full curve, poor fit]. Moreover, under setting [1], the AC50 is 0.651 µM [falling, full curve].

Consider `CN(C)/C=C1\C(=O)N(c2ccc(Cl)cc2)CS1(=O)=O`, for which the cell number change is -24.1%. Further, the AC50 under setting [1] is 0.259 µM [rising, full curve, poor fit].

As to `O=C(NC1CCCCC1)C(c1ccc(F)cc1)N(C(=O)c1csnn1)C1CCCC1` (configuration not stated), the cell number change is -7.62%. Besides, the AC50 under setting [1] was 29.1 µM [rising, partial curve, poor fit].

With `CCN(CC)CC(C)OC(=O)c1cc(OC)c(OC)c(OC)c1` (configuration not stated), the cell number change is -69%. Moreover, under setting [2], the AC50 is 5.17 µM [falling, full curve]. Moreover, the AC50 under setting [1] is 4.11 µM [falling, full curve].

On to `CCOc1ccc(CCNC(=O)CS(=O)(=O)Cc2nc(-c3ccccc3F)oc2C)cc1`, for which the cell number change turned out to be 0.708%.

For the compound `CCOC(=O)c1[nH]c(C)c(C(=O)c2cc(F)ccc2F)c1C`, the concentration at half-maximal activity (AC50) under setting [2] was 6.51 µM [rising, single point].

As for `COc1cc(NC(=O)CS(=O)(=O)c2ccccc2)cc(OC)c1OC`, the cell number change is -12.6%. For the same compound, the AC50 under setting [1] is 11.6 µM [rising, partial curve, poor fit].

On to `CCCNC1=C(N(C(C)=O)c2cccc(F)c2)C(=O)c2ccccc2C1=O`, for which the cell number change was -30.6%. Also, under setting [1], the half-maximal activity concentration (AC50) is 2.91 µM [falling, partial curve, poor fit].

Turning to `O=C(O)c1ccc(N2CCN(c3ccc(Cl)cc3)CC2)c([N+](=O)[O-])c1`, the cell number change came out at 12.8%. Moreover, under setting [1], the AC50 is 0.116 µM [rising, full curve, poor fit].

In the case of `O=C(c1cc(C2CC2)nn1-c1ccccc1)N1CCN(Cc2ccccc2F)CC1`, the cell number change came out at 25%. The AC50 under setting [1] is 0.13 µM [rising, partial curve, poor fit].

Take `CC1CN(C(=O)C2(C)CC2(Br)Br)CC(C)O1` (configuration not stated): the cell number change was -26%. In addition, the half-maximal activity concentration (AC50) under setting [2] was 2.31 µM [falling, single point].

In the case of `COc1cccc2cc(C(=O)NCCN3CCOCC3)oc12`, the cell number change is 21.6%. Also, the half-maximal activity concentration (AC50) under setting [1] is 0.411 µM [falling, single point].

For `Cc1ccc(N=c2ssnc2Cl)cc1`, the cell number change was -61.5%. Moreover, the AC50 under setting [2] was 29.1 µM [falling, single point]. In addition, the concentration at half-maximal activity (AC50) under setting [1] was 32.6 µM [falling, single point].

On to `Cc1snc(S(=O)(=O)/C(C#N)=N/Nc2ccc(C(F)(F)F)cc2)c1C#N`, for which the cell number change came to 47.2%. Moreover, the AC50 under setting [1] was 0.58 µM [rising, single point].

Regarding `O=C(O)c1ccc(COc2ccccc2[N+](=O)[O-])o1`, the cell number change is -40.2%. The AC50 under setting [2] is 9.2 µM [falling, partial curve, poor fit].

As to `CC(NC(=O)Cc1cccc(C(F)(F)F)c1)c1ccc(F)cc1` (configuration not stated), the cell number change is -13.5%.

As for `CC(=O)Nc1ccc(S(=O)(=O)N2CCN(C(=O)c3ncoc3-c3cccc(F)c3)CC2)cc1`, the cell number change is -6.58%.

As to `CC1CCN(C(=O)COC(=O)c2cc(Cl)cc(Cl)c2N)CC1`, the cell number change is -12.7%. In addition, the AC50 under setting [1] is 8.2 µM [rising, single point].

Take `Cc1c(Cl)cccc1NC(=O)C1C2C=CC(C2)C1C(=O)O` (configuration not stated): the cell number change was determined as 6.37%. Also, the AC50 under setting [1] is 0.206 µM [rising, full curve, poor fit].

Consider `COc1ccc(CN(C(=O)c2cccs2)c2ccccc2C(=O)O)cc1`, for which the cell number change is -48.2%. For the same compound, the AC50 under setting [2] was 0.517 µM [falling, full curve].

With `O=c1c2ccccc2cnn1Cc1n[nH]c(=S)n1-c1ccc(F)cc1`, the cell number change worked out at 1.42%. Moreover, under setting [1], the AC50 is 6.51 µM [falling, single point].

For `CCCCN(C)CCNC(=O)CN1C(=O)CSc2ccc(S(=O)(=O)N3CCCCC3)cc21`, the cell number change stood at 2.47%. In addition, under setting [2], the AC50 is 0.326 µM [rising, partial curve, poor fit].

As to `COc1ccc2c3c([nH]c2c1)C1CC2C(CC(O)C(OC)C2CO)CN1CC3` (configuration not stated), the cell number change was -5.91%.

Turning to `CC(Oc1ccc(F)cc1)C(=O)Nc1nc(-c2ccccn2)cs1` (configuration not stated), the cell number change came out at 8.88%. For the same compound, under setting [2], the AC50 was 6.51 µM [rising, single point]. Also, under setting [1], the AC50 is 6.51 µM [rising, single point].

Regarding `Cc1cc(C)c(C(=O)CN2C(=O)C(=O)N(C3CCCC3)C2=O)cc1C`, the cell number change is 42.3%. The AC50 under setting [2] is 16.4 µM [rising, single point]. For the same compound, under setting [1], the concentration at half-maximal activity (AC50) was 16.4 µM [rising, partial curve].

Take `COc1cccc(C(=O)NCC2(c3ccc(OC)c(OC)c3)CCCC2)c1`: the cell number change was -15.9%.

As for `O=c1ncn(-c2ccc(F)cc2)c2ncccc12`, the cell number change was -49.6%. Moreover, under setting [2], the AC50 was 0.116 µM [falling, full curve, poor fit]. Besides, under setting [1], the AC50 was 29.1 µM [falling, single point].

Consider `Nc1ccc2oc(-c3ccccc3Cl)cc(=O)c2c1O`, for which the cell number change was found to be 0.968%. In addition, the AC50 under setting [1] was 0.82 µM [rising, full curve].

In the case of `Cc1cc(C)c(S(=O)(=O)NCCC2CCCN2C)c(C)c1` (configuration not stated), the cell number change was -27.2%. Besides, under setting [2], the AC50 was 4.11 µM [falling, full curve, poor fit]. The AC50 under setting [1] was 4.11 µM [falling, full curve].

For `CCCOc1ccc(-c2cnc(SCC(N)=O)nc2N)cc1`, the cell number change stood at 32.3%. The AC50 under setting [2] is 2.91 µM [rising, single point].

Consider `COC(=O)c1cn(CC(=O)Nc2ccc(OC)cc2)c2ccccc12`, for which the cell number change is -0.88%.

Turning to `CN(C)CCC#CC(O)(c1ccccc1)c1ccccc1`, the cell number change is 18.7%. Moreover, under setting [2], the AC50 was 6.51 µM [falling, single point].

Take `CSc1ccccc1C(=O)Nc1ccc(C)cc1C`: under setting [1], the concentration at half-maximal activity (AC50) was 9.2 µM [rising, partial curve, poor fit].

`O=C(NCc1ccccc1Cl)C1CCN(C(=O)c2sccc2-n2cccc2)CC1`: the cell number change came out at 31.9%. Further, under setting [2], the AC50 is 29.1 µM [rising, single point].

`NS(=O)(=O)c1ccc(CCNc2nc(CN3CCCCC3)nc3sc4c(c23)CCC4)cc1`: the cell number change is -27.6%. Besides, the AC50 under setting [1] is 11.6 µM [falling, partial curve].

Take `COc1ccc(-c2noc(C3CCCN(C(=O)c4ccccc4OC)C3)n2)cc1OC` (configuration not stated): the cell number change is -11.1%.

For `Cc1onc(-c2ccncc2)c1C(=O)O`, the AC50 under setting [1] is 14.6 µM [falling, partial curve].
